Like-named read-outs stand apart in the source and are kept apart here. Results are given in words; binding and its absence hold for the method and conditions named. Binding seen in cells or lysates may run through a third protein. Here binding means that the protein was enriched with, or labelled near, the bait; the list need not be complete. For some of these results: Where a sequence is shown, tags or fusion partners need not be part of it.
T1: mycBirA*–Rab25 (UniProt P57735)
T1 sequence: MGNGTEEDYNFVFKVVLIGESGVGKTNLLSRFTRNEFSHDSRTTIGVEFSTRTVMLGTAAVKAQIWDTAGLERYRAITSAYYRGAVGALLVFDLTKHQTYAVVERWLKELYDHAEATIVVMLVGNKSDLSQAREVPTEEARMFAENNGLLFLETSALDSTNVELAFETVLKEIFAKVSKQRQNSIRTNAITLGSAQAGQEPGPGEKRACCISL

The chains behind the UniProt entries cited, without tags or fusion partners.
UniProt P62491: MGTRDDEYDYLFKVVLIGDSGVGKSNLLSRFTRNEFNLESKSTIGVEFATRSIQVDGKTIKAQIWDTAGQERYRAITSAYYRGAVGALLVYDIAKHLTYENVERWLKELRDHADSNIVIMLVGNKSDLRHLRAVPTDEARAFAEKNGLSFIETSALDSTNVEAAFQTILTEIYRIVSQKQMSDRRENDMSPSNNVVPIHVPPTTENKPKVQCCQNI
UniProt O60493: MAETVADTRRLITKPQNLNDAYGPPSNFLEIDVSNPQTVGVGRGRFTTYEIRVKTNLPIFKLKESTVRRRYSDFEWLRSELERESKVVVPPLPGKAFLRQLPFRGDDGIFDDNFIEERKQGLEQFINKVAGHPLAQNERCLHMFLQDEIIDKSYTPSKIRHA
UniProt Q3SXY8: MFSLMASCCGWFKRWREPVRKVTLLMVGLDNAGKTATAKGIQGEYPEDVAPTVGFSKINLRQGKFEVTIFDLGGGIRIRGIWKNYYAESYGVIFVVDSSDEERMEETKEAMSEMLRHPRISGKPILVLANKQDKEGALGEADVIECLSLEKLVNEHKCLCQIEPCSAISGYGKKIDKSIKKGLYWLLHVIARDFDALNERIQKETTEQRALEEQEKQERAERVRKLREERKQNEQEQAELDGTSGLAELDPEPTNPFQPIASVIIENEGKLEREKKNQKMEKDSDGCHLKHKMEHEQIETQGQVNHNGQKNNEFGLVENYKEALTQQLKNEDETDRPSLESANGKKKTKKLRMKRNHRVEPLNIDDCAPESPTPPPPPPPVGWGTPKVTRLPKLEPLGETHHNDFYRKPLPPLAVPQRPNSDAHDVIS
UniProt Q13596: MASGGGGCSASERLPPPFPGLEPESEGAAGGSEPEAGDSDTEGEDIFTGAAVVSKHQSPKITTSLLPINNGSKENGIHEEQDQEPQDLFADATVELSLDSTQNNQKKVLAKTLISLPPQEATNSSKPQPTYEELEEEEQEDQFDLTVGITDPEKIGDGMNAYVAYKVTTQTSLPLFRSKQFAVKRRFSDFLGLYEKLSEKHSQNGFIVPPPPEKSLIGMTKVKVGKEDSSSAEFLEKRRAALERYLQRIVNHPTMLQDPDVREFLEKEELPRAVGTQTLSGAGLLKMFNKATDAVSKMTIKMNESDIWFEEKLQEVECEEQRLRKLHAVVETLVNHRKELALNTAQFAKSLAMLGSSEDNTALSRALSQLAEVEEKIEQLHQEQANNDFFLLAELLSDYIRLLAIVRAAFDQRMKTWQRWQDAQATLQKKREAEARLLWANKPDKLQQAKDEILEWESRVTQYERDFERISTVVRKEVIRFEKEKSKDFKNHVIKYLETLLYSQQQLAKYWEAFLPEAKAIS
UniProt O60645: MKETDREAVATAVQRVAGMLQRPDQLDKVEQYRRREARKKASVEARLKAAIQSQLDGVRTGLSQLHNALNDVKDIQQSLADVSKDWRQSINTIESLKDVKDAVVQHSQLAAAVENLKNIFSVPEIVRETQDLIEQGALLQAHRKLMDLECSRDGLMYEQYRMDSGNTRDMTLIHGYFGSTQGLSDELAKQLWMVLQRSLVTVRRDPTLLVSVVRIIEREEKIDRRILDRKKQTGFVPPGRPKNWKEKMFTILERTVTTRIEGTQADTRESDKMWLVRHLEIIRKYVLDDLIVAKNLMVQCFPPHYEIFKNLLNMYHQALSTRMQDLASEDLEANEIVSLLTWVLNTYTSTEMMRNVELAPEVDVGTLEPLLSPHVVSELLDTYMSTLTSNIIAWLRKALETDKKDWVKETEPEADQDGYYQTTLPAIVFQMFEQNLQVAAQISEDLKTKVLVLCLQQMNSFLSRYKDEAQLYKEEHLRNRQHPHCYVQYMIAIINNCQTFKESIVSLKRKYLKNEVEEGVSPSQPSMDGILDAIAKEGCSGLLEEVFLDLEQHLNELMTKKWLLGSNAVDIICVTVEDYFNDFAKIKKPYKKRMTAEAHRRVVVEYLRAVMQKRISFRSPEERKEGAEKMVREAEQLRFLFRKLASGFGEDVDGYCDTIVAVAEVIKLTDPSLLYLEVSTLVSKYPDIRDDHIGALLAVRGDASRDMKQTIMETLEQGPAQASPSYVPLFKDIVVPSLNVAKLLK
UniProt Q641Q2: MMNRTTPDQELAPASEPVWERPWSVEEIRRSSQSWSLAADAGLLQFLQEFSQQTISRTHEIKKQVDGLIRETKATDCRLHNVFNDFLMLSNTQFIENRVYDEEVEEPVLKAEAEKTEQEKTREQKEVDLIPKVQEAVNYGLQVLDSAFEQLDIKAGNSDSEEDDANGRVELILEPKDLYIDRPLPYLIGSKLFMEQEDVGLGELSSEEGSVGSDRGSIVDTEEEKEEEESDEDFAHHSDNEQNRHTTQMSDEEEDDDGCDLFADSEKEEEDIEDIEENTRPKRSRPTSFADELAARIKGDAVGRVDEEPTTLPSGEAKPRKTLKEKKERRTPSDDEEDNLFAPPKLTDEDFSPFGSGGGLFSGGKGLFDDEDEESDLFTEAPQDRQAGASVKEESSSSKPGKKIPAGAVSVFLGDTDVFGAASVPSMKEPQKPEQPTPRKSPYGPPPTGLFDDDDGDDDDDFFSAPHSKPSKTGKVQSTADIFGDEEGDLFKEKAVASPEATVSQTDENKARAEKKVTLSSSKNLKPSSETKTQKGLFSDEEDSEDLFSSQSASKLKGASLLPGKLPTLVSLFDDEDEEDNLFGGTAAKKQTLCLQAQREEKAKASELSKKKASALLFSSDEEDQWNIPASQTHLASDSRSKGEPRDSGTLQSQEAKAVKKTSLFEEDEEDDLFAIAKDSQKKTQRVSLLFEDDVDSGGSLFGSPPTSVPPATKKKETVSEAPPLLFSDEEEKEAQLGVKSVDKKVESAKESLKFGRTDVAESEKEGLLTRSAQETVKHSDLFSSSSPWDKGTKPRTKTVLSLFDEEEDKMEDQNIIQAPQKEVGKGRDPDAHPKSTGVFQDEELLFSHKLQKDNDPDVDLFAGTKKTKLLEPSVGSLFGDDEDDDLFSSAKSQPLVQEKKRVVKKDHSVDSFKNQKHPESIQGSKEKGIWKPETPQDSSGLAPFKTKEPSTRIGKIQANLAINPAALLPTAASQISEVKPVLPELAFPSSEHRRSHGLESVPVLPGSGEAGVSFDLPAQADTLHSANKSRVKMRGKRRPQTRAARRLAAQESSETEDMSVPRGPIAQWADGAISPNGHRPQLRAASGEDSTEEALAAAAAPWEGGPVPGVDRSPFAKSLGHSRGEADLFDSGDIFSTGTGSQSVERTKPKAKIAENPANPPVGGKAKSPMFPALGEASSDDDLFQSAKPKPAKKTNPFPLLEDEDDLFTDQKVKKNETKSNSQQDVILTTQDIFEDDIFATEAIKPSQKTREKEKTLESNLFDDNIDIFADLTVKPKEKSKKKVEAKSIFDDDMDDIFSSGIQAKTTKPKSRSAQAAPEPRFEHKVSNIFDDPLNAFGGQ
UniProt Q7L804: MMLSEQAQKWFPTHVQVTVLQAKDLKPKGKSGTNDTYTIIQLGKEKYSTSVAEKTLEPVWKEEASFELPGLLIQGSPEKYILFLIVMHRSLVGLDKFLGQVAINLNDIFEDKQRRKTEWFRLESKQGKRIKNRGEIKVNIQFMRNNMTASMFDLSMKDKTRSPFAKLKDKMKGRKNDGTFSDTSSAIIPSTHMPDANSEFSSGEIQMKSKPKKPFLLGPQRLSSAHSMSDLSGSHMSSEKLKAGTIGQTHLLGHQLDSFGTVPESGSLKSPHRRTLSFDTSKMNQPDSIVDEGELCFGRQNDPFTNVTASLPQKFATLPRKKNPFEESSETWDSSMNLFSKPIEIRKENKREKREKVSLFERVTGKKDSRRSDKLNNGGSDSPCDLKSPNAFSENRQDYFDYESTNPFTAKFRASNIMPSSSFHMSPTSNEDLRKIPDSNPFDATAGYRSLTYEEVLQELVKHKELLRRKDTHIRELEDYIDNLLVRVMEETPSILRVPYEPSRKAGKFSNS
UniProt Q14677: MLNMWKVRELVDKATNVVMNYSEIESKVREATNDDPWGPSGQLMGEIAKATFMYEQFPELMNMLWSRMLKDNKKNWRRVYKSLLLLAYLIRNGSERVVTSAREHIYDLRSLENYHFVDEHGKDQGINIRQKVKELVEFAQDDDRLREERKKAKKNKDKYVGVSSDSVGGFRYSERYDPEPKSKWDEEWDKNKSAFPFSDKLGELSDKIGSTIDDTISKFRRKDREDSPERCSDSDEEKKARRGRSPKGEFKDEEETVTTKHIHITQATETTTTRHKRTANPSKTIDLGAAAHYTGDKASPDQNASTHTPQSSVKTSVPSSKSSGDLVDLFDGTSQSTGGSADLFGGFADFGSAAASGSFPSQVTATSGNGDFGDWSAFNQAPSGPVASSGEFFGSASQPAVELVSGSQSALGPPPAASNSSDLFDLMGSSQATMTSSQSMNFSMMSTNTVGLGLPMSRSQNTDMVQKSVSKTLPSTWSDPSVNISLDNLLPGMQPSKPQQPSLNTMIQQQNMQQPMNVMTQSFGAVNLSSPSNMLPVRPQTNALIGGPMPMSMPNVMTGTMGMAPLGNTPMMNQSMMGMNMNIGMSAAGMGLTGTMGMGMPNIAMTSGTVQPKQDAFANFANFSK
UniProt Q9Y6D6: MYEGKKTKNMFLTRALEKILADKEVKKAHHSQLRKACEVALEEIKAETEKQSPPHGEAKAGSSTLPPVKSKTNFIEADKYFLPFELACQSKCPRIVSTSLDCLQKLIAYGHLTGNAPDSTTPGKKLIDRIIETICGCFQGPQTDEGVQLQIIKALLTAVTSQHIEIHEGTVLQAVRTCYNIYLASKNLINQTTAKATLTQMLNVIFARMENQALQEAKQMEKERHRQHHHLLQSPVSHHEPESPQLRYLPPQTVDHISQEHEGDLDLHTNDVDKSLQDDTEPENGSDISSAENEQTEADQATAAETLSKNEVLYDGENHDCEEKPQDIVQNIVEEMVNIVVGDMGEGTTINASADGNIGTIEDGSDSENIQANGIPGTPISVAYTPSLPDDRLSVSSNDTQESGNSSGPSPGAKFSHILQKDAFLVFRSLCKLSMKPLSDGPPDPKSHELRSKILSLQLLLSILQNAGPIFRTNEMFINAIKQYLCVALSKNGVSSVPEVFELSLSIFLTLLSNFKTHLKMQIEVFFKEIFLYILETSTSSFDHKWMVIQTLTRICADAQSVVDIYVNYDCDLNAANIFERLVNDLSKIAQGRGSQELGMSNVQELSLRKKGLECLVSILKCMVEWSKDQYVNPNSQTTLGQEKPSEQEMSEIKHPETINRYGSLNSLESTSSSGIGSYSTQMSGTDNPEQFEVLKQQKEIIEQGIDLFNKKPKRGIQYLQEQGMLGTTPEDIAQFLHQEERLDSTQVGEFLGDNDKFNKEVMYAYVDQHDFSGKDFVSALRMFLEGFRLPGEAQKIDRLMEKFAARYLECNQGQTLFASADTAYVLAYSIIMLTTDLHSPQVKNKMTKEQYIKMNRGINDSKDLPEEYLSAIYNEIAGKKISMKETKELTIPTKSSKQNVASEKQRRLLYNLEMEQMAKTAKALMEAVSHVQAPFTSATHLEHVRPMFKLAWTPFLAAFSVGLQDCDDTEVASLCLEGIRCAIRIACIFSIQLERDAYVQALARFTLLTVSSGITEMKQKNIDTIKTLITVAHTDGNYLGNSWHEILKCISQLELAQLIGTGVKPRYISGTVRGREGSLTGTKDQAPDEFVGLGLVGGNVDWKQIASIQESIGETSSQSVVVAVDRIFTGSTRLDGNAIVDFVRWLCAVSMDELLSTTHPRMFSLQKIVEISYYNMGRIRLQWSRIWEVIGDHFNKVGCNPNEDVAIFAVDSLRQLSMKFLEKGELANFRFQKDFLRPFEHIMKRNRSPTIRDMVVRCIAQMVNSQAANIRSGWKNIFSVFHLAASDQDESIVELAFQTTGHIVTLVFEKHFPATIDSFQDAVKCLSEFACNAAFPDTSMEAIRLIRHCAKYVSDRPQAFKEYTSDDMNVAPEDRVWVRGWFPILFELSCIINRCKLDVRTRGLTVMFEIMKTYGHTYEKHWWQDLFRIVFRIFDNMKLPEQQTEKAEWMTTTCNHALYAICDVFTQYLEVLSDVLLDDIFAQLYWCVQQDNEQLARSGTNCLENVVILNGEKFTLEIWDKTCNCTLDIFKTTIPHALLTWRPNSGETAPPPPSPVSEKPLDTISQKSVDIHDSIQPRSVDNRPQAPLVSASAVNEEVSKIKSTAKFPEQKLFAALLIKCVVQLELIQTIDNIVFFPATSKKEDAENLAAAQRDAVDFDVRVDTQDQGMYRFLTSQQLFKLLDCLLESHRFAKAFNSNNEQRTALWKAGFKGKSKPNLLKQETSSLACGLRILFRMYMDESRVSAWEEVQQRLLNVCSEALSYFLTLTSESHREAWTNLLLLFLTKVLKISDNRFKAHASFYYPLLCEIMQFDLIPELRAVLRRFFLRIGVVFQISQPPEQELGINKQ
UniProt P63027: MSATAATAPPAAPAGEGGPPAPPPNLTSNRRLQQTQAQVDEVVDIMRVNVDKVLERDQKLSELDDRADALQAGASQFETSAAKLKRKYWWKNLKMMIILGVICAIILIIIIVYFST

B1: RABL6 (protein, UniProt Q3YEC7 1-729)
chain: MFSALKKLVGSDQAPGRDKNIPAGLQSMNQALQRRFAKGVQYNMKIVIRGDRNTGKTALWHRLQGRPFVEEYIPTQEIQVTSIHWSYKTTDDIVKVEVWDVVDKGKCKKRGDGLKMENDPQEAESEMALDAEFLDVYKNCNGVVMMFDITKQWTFNYILRELPKVPTHVPVCVLGNYRDMGEHRVILPDDVRDFIDNLDRPPGSSYFRYAESSMKNSFGLKYLHKFFNIPFLQLQRETLLRQLETNQLDMDATLEELSVQQETEDQNYGIFLEMMEARSRGHASPLAANGQSPSPGSQSPVVPAGAVSTGSSSPGTPQPAPQLPLNAAPPSSVPPVPPSEALPPPACPSAPAPRRSIISRLFGTSPATEAAPPPPEPVPAAEGPATVQSVEDFVPDDRLDRSFLEDTTPARDEKKVGAKAAQQDSDSDGEALGGNPMVAGFQDDVDLEDQPRGSPPLPAGPVPSQDITLSSEEEAEVAAPTKGPAPAPQQCSEPETKWSSIPASKPRRGTAPTRTAAPPWPGGVSVRTGPEKRSSTRPPAEMEPGKGEQASSSESDPEGPIAAQMLSFVMDDPDFESEGSDTQRRADDFPVRDDPSDVTDEDEGPAEPPPPPKLPLPAFRLKNDSDLFGLGLEEAGPKESSEEGKEGKTPSKEKKKKKKKGKEEEEKAAKKKSKHKKSKDKEEGKEERRRRQQRPPRSRERTAADELEAFLGGGAPGGRHPGGGDYEEL
B2: SH3BP5L (protein, UniProt Q7L8J4 1-393)
chain: MAELRQVPGGRETPQGELRPEVVEDEVPRSPVAEEPGGGGSSSSEAKLSPREEEELDPRIQEELEHLNQASEEINQVELQLDEARTTYRRILQESARKLNTQGSHLGSCIEKARPYYEARRLAKEAQQETQKAALRYERAVSMHNAAREMVFVAEQGVMADKNRLDPTWQEMLNHATCKVNEAEEERLRGEREHQRVTRLCQQAEARVQALQKTLRRAIGKSRPYFELKAQFSQILEEHKAKVTELEQQVAQAKTRYSVALRNLEQISEQIHARRRGGLPPHPLGPRRSSPVGAEAGPEDMEDGDSGIEGAEGAGLEEGSSLGPGPAPDTDTLSLLSLRTVASDLQKCDSVEHLRGLSDHVSLDGQELGTRSGGRRGSDGGARGGRHQRSVSL
B3: TBC1D2B (protein, UniProt Q9UPU7 1-963)
chain: MPGAGARAEEGGGGGEGAAQGAAAEPGAGPAREPARLCGYLQKLSGKGPLRGYRSRWFVFDARRCYLYYFKSPQDALPLGHLDIADACFSYQGPDEAAEPGTEPPAHFQVHSAGAVTVLKAPNRQLMTYWLQELQQKRWEYCNSLDMVKWDSRTSPTPGDFPKGLVARDNTDLIYPHPNASAEKARNVLAVETVPGELVGEQAANQPAPGHPNSINFYSLKQWGNELKNSMSSFRPGRGHNDSRRTVFYTNEEWELLDPTPKDLEESIVQEEKKKLTPEGNKGVTGSGFPFDFGRNPYKGKRPLKDIIGSYKNRHSSGDPSSEGTSGSGSVSIRKPASEMQLQVQSQQEELEQLKKDLSSQKELVRLLQQTVRSSQYDKYFTSSRLCEGVPKDTLELLHQKDDQILGLTSQLERFSLEKESLQQEVRTLKSKVGELNEQLGMLMETIQAKDEVIIKLSEGEGNGPPPTVAPSSPSVVPVARDQLELDRLKDNLQGYKTQNKFLNKEILELSALRRNAERRERDLMAKYSSLEAKLCQIESKYLILLQEMKTPVCSEDQGPTREVIAQLLEDALQVESQEQPEQAFVKPHLVSEYDIYGFRTVPEDDEEEKLVAKVRALDLKTLYLTENQEVSTGVKWENYFASTVNREMMCSPELKNLIRAGIPHEHRSKVWKWCVDRHTRKFKDNTEPGHFQTLLQKALEKQNPASKQIELDLLRTLPNNKHYSCPTSEGIQKLRNVLLAFSWRNPDIGYCQGLNRLVAVALLYLEQEDAFWCLVTIVEVFMPRDYYTKTLLGSQVDQRVFRDLMSEKLPRLHGHFEQYKVDYTLITFNWFLVVFVDSVVSDILFKIWDSFLYEGPKVIFRFALALFKYKEEEILKLQDSMSIFKYLRYFTRTILDARKLISISFGDLNPFPLRQIRNRRAYHLEKVRLELTELEAIREDFLRERDTSPDKGELVSDEEEDT
B4: TBC1D22B (protein, UniProt Q9NU19 1-505)
chain: MAAENSKQFWKRSAKLPGSIQPVYGAQHPPLDPRLTKNFIKERSKVNTVPLKNKKASSFHEFARNTSDAWDIGDDEEEDFSSPSFQTLNSKVALATAAQVLENHSKLRVKPERSQSTTSDVPANYKVIKSSSDAQLSRNSSDTCLRNPLHKQQSLPLRPIIPLVARISDQNASGAPPMTVREKTRLEKFRQLLSSQNTDLDELRKCSWPGVPREVRPITWRLLSGYLPANTERRKLTLQRKREEYFGFIEQYYDSRNEEHHQDTYRQIHIDIPRTNPLIPLFQQPLVQEIFERILFIWAIRHPASGYVQGINDLVTPFFVVFLSEYVEEDVENFDVTNLSQDMLRSIEADSFWCMSKLLDGIQDNYTFAQPGIQKKVKALEELVSRIDEQVHNHFRRYEVEYLQFAFRWMNNLLMRELPLRCTIRLWDTYQSEPEGFSHFHLYVCAAFLIKWRKEILDEEDFQGLLMLLQNLPTIHWGNEEIGLLLAEAYRLKYMFADAPNHYRR
B5: EHD1 (protein, UniProt Q9H4M9 1-534)
chain: MFSWVSKDARRKKEPELFQTVAEGLRQLYAQKLLPLEEHYRFHEFHSPALEDADFDNKPMVLLVGQYSTGKTTFIRHLIEQDFPGMRIGPEPTTDSFIAVMHGPTEGVVPGNALVVDPRRPFRKLNAFGNAFLNRFMCAQLPNPVLDSISIIDTPGILSGEKQRISRGYDFAAVLEWFAERVDRIILLFDAHKLDISDEFSEVIKALKNHEDKIRVVLNKADQIETQQLMRVYGALMWSLGKIINTPEVVRVYIGSFWSHPLLIPDNRKLFEAEEQDLFKDIQSLPRNAALRKLNDLIKRARLAKVHAYIISSLKKEMPNVFGKESKKKELVNNLGEIYQKIEREHQISPGDFPSLRKMQELLQTQDFSKFQALKPKLLDTVDDMLANDIARLMVMVRQEESLMPSQVVKGGAFDGTMNGPFGHGYGEGAGEGIDDVEWVVGKDKPTYDEIFYTLSPVNGKITGANAKKEMVKSKLPNTVLGKIWKLADVDKDGLLDDEEFALANHLIKVKLEGHELPADLPPHLVPPSKRRHE
B6: WDR44 (protein, UniProt Q5JSH3 1-913)
chain: MASESDTEEFYDAPEDVHLGGGYPVGSPGKVGLSTFKETENTAYKVGNESPVQELKQDVSKKIIESIIEESQKVLQLEDDSLDSKGKELSDQATASPIVARTDLSNIPGLLAIDQVLPEESQKAESQNTFEETELELKKCFPSDETCEKPVDETTKLTQTSSTEQLNVLETETEVLNKEAVEVKGGGDVLEPVSSDSLSTKDFAAVEEVAPAKPPRHLTPEPDIVASTKKPVPARPPPPTNFPPPRPPPPSRPAPPPRKRKSELEFETLKTPDIDVPKENITSDSLLTASMASESTVKDSQPSLDLASATSGDKIVTAQENGKAPDGQTVAGEVMGPQRPRSNSGRELTDEEILASVMIKNLDTGEEIPLSLAEEKLPTGINPLTLHIMRRTKEYVSNDAAQSDDEEKLQSQPTDTDGGRLKQKTTQLKKFLGKSVKRAKHLAEEYGERAINKVKSVRDEVFHTDQDDPSSSDDEGMPYTRPVKFKAAHGFKGPYDFDQIKVVQDLSGEHMGAVWTMKFSHCGRLLASAGQDNVVRIWALKNAFDYFNNMRMKYNTEGRVSPSPSQESLSSSKSDTDTGVCSGTDEDPDDKNAPFRQRPFCKYKGHTADLLDLSWSKNYFLLSSSMDKTVRLWHISRRECLCCFQHIDFVTAIAFHPRDDRYFLSGSLDGKLRLWNIPDKKVALWNEVDGQTKLITAANFCQNGKYAVIGTYDGRCIFYDTEHLKYHTQIHVRSTRGRNKVGRKITGIEPLPGENKILVTSNDSRIRLYDLRDLSLSMKYKGYVNSSSQIKASFSHDFTYLVSGSEDKYVYIWSTYHDLSKFTSVRRDRNDFWEGIKAHNAVVTSAIFAPNPSLMLSLDVQSEKSEGNEKSEDAEVLDATPSGIMKTDNTEVLLSADFTGAIKVFVNKRKNVS

Legend:
Assay in all cases: proximity labelling; BioID: A2780 cells stably expressing mycBirA*-Rab baits (mycBirA* alone as control), 1 uM biotin for 16 h; lysis in 0.4% SDS, 500 mM NaCl buffer; streptavidin microspheres; LC-MS/MS with label-free quantification, four replicates; high-confidence list by SAINTexpress (BFDR<=0.05), longlist by >2-fold enrichment; biotin-modified peptides also scored
[1] = target: T1, mycBirA*–Rab25
[2] = target: mycBirA*–Rab11a (UniProt P62491)
[3] = target: T1, mycBirA*–Rab25; remark: listed apart in the source
[4] = target: mycBirA*–Rab11a (UniProt P62491); remark: listed apart in the source

| Molecule | binding [1] | binding [2] | binding [3] | binding [4] |
| --- | --- | --- | --- | --- |
| SNX3 (from UniProt O60493 1-162) | binds | – | – | – |
| Arl13b (from UniProt Q3SXY8 1-428) | binds | binds | – | – |
| DENND4C (from UniProt Q5VZ89 1-1909) | – | binds | – | – |
| SNX1 (from UniProt Q13596 1-522) | – | binds | – | – |
| EXOC3 (from UniProt O60645 1-745) | binds | binds | – | – |
| FAM21A (from UniProt Q641Q2 1-1341) | binds | binds | – | – |
| SNAP23 (from UniProt O00161 1-211) | – | binds | – | – |
| PI4KB (from UniProt Q9UBF8 1-816) | – | binds | – | – |
| Rab11FIP2 (from UniProt Q7L804 1-512) | binds | binds | – | – |
| clathrin interactor 1 (from UniProt Q14677 1-625) | binds | binds | – | – |
| ARFGEF1 (from UniProt Q9Y6D6 1-1849) | – | binds | – | – |
| VAMP2 (from UniProt P63027 1-116) | binds | binds | – | – |
| ARFGAP1 (from UniProt Q8N6T3 1-406) | binds | binds | – | – |
| RabGAP1L (from UniProt Q5R372 1-815) | binds | binds | – | – |
| B1 | – | – | binds | binds |
| B2 | – | – | binds | binds |
| B3 | – | – | binds | binds |
| B4 | – | – | binds | binds |
| B5 | – | – | binds | binds |
| B6 | – | – | binds | binds |
